Where a name gives a salt, the structure may show the parent alone. This is one part of the list. No stated cut-off is given here; in the data, active = 0.7 or more and inactive = the rest. Repeats are few or missing, and single values can be far off.

This assay concerns MiaPaCa-2 CLSA-25. The experiment in a line: cell death relative to DMSO vehicle (fraction); higher = more cytotoxic. To be noted: 5 µM; treatment time 48 h; medium cystine 25 µM.
As for `Cn1c(=O)cc(N2CCC[C@@H](N)C2)n(Cc2cc(F)ccc2C#N)c1=O` [Trelagliptin succinate], the cell death was inactive: 0.0792.

Regarding `CCOC(=O)c1ccc(C#Cc2ccc3c(c2)C(C)(C)CCS3)nc1` [Tazarotene], the cell death was inactive: 0.0963.

As for `CN(C)C(=N)NC(=N)N` [Metformin hydrochloride], the cell death was inactive: 0.452.

`C[C@@H](C(=O)Nc1ccc(Cl)cc1)[C@H]1CC[C@@H](c2ccnc3ccc(F)cc32)CC1` [Linrodostat]: the cell death was inactive: 0.207.

Turning to `NNC(=O)c1ccncc1.Nc1ccc(C(=O)O)c(O)c1` [Pasiniazid], the cell death is inactive: 0.228.

Turning to `NCCCC(N)(C(=O)O)C(F)F` (stereo unspecified) [Eflornithine hydrochloride Monohydrate], the cell death is inactive: 0.486.

These data come from the supplement of paper PMC12872613.
